According to patent publication US20170158755A1:
Results are given in words; binding and its absence hold for the method and conditions named. Some results given as binding are weak or reduced against the parent protein; the word gives no strength.

Sequences of proteins named here, by UniProt entry; tags and fusion partners are left off. A change or cut given only in a name is not applied to a line headed by its entry. Residues count along the entry.
UniProt Q16363: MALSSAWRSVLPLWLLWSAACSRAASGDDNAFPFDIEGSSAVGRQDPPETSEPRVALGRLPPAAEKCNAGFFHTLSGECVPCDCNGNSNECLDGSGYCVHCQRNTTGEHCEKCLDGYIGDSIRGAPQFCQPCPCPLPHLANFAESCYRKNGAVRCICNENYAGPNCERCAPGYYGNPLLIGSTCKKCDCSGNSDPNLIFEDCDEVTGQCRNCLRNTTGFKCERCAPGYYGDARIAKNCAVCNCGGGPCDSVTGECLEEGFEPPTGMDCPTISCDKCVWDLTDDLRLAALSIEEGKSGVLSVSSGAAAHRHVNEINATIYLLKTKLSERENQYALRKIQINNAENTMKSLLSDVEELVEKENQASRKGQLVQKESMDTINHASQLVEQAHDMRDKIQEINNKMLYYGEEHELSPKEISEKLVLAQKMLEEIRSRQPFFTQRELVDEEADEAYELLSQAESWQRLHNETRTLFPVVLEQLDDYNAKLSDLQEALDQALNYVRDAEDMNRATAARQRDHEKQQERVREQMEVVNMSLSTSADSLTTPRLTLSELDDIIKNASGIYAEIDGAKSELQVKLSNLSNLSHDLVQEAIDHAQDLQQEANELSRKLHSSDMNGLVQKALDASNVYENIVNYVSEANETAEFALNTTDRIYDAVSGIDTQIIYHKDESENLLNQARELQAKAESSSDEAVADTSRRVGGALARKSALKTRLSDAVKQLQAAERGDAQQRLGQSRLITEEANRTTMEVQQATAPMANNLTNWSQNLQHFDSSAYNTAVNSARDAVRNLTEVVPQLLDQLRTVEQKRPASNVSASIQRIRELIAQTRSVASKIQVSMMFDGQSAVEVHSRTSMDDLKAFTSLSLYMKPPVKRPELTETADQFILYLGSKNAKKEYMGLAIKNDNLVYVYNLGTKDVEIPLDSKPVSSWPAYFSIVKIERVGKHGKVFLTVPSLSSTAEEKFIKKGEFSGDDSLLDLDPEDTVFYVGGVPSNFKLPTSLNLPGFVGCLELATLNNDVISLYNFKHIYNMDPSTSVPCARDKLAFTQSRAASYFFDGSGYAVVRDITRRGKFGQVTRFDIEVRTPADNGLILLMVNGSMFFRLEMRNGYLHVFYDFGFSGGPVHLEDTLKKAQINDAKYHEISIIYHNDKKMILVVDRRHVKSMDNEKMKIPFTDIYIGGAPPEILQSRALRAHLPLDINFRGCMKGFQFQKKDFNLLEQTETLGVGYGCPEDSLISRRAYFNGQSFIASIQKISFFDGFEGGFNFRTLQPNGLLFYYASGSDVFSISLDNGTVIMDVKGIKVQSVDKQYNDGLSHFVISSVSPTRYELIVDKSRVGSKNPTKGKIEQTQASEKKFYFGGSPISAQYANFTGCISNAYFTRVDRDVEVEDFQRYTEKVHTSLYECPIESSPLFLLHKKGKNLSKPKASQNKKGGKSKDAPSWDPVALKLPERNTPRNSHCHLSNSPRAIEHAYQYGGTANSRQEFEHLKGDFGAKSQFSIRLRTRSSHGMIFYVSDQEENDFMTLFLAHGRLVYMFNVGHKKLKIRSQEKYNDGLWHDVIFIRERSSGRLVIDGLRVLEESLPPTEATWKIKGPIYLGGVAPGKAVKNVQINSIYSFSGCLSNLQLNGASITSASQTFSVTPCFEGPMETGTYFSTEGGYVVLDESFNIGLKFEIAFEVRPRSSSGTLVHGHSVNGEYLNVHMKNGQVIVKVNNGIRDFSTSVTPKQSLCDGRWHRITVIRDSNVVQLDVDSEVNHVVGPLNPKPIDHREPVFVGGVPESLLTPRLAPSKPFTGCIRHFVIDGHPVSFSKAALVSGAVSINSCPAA
UniProt P97927, residues 826-1816: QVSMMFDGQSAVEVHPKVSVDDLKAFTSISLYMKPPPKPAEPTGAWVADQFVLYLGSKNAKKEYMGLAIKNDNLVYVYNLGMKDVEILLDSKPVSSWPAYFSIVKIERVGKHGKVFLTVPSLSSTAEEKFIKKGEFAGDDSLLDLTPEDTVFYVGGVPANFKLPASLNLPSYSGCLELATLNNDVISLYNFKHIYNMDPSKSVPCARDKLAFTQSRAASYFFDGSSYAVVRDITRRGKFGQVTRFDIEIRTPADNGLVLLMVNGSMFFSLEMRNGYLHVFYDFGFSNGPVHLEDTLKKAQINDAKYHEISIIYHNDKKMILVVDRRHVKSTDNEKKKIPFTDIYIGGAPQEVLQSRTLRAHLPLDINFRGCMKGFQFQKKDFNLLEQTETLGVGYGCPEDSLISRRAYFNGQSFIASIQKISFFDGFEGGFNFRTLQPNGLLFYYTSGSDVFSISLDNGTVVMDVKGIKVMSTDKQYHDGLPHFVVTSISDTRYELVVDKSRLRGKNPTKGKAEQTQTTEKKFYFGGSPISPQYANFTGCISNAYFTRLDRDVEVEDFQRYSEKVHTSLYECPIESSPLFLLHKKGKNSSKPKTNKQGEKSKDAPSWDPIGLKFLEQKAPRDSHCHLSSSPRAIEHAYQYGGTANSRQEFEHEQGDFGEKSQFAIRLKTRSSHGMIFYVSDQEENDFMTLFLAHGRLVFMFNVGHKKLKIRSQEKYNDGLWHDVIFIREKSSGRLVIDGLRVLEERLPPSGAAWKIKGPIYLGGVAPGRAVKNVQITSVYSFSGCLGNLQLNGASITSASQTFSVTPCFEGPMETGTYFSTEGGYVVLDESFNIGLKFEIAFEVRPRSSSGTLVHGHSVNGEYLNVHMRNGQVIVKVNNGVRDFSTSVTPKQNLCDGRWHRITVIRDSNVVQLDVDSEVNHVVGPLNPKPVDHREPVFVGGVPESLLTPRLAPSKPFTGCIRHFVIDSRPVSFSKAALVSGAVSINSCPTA
UniProt P07942: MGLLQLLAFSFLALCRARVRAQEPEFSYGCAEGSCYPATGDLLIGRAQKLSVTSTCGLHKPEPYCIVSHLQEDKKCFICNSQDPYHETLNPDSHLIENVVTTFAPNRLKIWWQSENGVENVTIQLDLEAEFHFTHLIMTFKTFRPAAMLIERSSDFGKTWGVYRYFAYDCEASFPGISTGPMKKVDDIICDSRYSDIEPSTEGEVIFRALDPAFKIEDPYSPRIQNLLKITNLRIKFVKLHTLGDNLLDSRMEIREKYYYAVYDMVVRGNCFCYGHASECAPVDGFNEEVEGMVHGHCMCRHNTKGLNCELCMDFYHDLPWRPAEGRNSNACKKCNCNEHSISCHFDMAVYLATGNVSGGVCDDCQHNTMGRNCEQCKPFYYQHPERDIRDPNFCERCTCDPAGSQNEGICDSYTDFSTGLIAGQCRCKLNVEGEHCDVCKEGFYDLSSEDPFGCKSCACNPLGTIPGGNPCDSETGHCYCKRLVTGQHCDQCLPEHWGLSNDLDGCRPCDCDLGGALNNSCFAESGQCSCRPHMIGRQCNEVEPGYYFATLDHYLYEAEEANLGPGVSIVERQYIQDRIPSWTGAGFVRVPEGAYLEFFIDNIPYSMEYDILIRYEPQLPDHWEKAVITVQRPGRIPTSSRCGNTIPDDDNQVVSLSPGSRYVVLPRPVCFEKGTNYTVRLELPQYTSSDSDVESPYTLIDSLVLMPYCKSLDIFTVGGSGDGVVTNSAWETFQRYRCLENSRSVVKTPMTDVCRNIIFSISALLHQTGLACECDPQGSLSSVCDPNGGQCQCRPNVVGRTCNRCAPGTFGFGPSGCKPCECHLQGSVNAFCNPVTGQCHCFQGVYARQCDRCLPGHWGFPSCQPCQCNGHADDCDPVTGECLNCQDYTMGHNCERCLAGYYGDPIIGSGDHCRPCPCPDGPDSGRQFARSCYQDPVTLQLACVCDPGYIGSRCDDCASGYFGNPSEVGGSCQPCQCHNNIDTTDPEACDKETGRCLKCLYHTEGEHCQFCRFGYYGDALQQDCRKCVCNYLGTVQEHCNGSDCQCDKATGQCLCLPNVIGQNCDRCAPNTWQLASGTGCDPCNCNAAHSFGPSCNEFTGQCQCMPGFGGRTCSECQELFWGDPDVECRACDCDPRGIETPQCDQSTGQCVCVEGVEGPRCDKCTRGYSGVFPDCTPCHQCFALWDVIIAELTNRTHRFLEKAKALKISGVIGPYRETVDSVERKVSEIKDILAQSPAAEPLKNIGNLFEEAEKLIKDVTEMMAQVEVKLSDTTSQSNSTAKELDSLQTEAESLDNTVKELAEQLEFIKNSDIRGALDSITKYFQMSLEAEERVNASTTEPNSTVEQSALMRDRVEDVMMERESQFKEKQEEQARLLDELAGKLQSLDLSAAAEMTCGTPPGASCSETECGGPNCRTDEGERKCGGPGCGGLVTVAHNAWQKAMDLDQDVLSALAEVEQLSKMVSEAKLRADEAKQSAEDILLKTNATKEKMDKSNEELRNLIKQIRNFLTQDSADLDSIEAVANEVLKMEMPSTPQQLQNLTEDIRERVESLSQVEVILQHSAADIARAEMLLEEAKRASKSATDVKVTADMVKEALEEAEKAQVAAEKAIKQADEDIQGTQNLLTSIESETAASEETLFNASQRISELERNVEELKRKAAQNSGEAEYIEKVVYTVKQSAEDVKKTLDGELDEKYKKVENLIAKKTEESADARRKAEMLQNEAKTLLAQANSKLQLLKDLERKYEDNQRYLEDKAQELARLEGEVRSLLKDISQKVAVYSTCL
UniProt P11047: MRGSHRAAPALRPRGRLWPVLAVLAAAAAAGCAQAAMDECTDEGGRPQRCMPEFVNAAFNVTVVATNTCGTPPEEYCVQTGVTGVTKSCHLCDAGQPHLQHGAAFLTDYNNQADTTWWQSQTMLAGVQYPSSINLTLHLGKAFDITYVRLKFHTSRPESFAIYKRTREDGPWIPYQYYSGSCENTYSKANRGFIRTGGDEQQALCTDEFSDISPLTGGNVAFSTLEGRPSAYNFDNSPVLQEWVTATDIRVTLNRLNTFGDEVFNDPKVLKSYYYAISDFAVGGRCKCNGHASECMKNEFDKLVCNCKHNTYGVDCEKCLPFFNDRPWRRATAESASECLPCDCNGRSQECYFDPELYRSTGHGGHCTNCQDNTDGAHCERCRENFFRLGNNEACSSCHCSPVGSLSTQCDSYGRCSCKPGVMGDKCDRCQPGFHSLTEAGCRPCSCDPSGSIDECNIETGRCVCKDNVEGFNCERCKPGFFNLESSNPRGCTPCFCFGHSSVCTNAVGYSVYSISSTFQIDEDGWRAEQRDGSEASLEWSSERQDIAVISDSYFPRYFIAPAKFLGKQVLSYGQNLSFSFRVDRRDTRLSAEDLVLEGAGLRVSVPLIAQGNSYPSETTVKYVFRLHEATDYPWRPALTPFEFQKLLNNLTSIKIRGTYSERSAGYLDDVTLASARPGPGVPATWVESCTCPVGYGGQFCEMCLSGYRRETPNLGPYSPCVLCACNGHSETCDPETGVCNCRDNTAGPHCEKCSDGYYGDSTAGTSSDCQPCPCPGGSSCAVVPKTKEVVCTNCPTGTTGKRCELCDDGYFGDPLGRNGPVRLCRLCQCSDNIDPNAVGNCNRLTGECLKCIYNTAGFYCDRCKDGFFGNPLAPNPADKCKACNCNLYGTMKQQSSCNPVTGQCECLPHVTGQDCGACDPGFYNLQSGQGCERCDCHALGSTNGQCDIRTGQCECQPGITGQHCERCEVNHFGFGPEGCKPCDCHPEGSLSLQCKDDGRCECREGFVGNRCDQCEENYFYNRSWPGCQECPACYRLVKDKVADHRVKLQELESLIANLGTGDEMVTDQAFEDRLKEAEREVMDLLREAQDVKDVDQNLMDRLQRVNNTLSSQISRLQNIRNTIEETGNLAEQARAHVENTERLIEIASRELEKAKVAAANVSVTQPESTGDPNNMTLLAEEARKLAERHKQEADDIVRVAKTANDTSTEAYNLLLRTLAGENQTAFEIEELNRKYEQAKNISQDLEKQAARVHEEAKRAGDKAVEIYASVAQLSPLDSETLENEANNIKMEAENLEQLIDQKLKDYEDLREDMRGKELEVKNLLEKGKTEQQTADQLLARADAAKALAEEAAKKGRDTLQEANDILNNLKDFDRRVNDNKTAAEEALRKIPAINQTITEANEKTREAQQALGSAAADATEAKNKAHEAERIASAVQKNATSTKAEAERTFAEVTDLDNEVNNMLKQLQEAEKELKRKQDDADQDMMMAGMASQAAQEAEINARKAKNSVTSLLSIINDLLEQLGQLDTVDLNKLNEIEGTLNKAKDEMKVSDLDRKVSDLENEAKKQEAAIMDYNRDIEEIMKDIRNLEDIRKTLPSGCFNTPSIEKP

What was measured:
[1] = molecular target: human LAMA4 LG1-3 modules displayed on 293 cells (human) (UniProt Q16363); assay: flow cytometry on 293 cells displaying LAMA4 G-domain variants
[2] = molecular target: mouse His-laminin-α4 (mouse) (UniProt P97927); assay: ELISA hMCAM-Fc capture blocking assay; antibody pre-incubated with mouse LAMA4-His; blocked partner: captured hMCAM-Fc
[3] = molecular target: recombinant laminin 411 (human) (UniProt P07942+P11047); assay: hMCAM.CHO flow cytometric blocking assay; antibody pre-incubated with laminin 411; blocked partner: human MCAM on CHO cells
[4] = molecular target: LGde1, human LAMA4 G domain with LG1 deleted, displayed on 293 cells (human) (UniProt Q16363); assay: flow cytometry on 293 cells displaying LAMA4 G-domain variants; % binding
[5] = molecular target: human LAMA4 LG1-3 modules displayed on 293 cells (human) (UniProt Q16363); assay: as above
[6] = molecular target: human LAMA4 G domain (LG1-5) displayed on 293 cells (human) (UniProt Q16363); assay: as above
[7] = molecular target: human LAMA4 G domain (LG1-5) displayed on 293 cells (human) (UniProt Q16363); assay: LAMA4 pDisplay flow cytometric blocking assay on LAMA4-displaying 293 cells; blocked ligand: 650-conjugated mouse MCAM-Fc
[8] = molecular target: human LAMA4 G domain (LG1-5) displayed on 293 cells (human) (UniProt Q16363); assay: flow cytometry competition on LAMA4-displaying 293 cells; 650-labeled antibody with unlabeled blocking antibody; MFI
[9] = molecular target: human LAMA4 G domain (LG1-5) displayed on 293 cells (human) (UniProt Q16363); assay: flow cytometry, LAMA4 pDisplay binding assay on LAMA4-displaying 293 cells; % binding
[10] = molecular target: human His-laminin-α4 (human) (UniProt Q16363); assay: ForteBio and Biacore

Row | binding [1] | binding [2] | binding [3] | binding [4] | binding [5] | binding [6] | binding [7] | binding [8] | binding [9] | binding [10] | Binder
1 | binds | binds | binds | binds | binds | binds | binds | binds | binds |  | mouse monoclonal antibody 1C1 (antibody, V domains shown) VH: QVQLQQSGAELARPGASVKLSCKASGYTFTNYGISWVKQRTGQGLEWIGAIYPRSGNTYYNEKFKGKATLTADKSSSTAYMELRSLTSEDSAVYFCARERDYGSSYALDYWGQGTSVTVSS VL: DIVMTQSQKFMSTSVGDRVSVTCKASHNVGTNVAWYQQKPGQSPKPLIYSASYRYSGVPDRFTGSGSGTDFTLTISNVQSEDLADYFCQQFNNYPYTFGGGTKLEIKR
2 |  | binds |  |  |  |  |  |  |  | binds | mouse monoclonal antibody 19C12 (antibody, V domains shown) VH: QVQLQQSGAELVKPGASVKISCKASGYAFSTYWMNWVKQRPGEGLEWIGQIYPGDGDTNYNGKFKGKATLTADKSSSTAYMQLSSLTSEDSAVYFCARSDGYYDYWGQGTTLTVSS VL: NIVLTQSPASLAVSLGQRATISCRASESVDSYGTSFMHWYQQKPGQPPKLLICLASSLESGVPARFSGSGSRTDFTLTIDPVEADDAATYYCQQNNEDPPTFGAGTKLELKR
